Measured values: publication PMC9115922
Results are given in words; binding and its absence hold for the method and conditions named. For part of these data: In cells and extracts the contact can be indirect. Some entries that bind do so weakly or less than the wild type. Blank lines part the entries; values can stand above or below the molecule they belong to.

Chains of the proteins cited; added tags and fusions are not shown. Lines headed by an entry give the natural chain unless they say otherwise; changes in a name come on top. A line that says so, or that is headed by a name, gives the form on record, which may keep a tag or linker.
UniProt Q15078: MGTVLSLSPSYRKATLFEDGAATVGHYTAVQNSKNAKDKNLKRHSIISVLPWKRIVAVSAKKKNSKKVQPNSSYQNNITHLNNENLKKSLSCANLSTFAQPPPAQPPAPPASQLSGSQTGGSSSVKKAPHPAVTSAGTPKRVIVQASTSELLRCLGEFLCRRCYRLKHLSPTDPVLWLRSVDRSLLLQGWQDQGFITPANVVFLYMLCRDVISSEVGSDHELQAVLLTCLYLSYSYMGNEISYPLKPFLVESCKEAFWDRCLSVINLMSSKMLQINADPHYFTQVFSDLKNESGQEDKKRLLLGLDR
UniProt Q9UQF2: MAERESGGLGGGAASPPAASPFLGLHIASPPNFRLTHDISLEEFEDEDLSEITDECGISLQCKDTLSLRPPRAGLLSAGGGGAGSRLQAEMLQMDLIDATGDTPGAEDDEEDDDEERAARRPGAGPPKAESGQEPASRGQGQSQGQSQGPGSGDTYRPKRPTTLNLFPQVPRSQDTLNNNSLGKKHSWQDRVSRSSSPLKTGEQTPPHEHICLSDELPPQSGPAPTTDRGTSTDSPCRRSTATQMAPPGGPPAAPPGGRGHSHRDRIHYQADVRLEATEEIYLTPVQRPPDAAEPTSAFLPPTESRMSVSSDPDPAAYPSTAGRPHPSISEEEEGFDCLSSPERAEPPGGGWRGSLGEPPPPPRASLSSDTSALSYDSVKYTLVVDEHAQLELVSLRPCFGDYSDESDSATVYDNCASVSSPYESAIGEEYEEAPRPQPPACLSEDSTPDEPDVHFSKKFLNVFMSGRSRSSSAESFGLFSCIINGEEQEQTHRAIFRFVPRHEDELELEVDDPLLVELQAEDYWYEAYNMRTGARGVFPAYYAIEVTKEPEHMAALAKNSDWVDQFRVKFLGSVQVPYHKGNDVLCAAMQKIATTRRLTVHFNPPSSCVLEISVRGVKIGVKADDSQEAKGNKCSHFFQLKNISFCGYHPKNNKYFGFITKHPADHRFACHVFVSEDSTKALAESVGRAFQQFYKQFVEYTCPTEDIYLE
UniProt Q8C863: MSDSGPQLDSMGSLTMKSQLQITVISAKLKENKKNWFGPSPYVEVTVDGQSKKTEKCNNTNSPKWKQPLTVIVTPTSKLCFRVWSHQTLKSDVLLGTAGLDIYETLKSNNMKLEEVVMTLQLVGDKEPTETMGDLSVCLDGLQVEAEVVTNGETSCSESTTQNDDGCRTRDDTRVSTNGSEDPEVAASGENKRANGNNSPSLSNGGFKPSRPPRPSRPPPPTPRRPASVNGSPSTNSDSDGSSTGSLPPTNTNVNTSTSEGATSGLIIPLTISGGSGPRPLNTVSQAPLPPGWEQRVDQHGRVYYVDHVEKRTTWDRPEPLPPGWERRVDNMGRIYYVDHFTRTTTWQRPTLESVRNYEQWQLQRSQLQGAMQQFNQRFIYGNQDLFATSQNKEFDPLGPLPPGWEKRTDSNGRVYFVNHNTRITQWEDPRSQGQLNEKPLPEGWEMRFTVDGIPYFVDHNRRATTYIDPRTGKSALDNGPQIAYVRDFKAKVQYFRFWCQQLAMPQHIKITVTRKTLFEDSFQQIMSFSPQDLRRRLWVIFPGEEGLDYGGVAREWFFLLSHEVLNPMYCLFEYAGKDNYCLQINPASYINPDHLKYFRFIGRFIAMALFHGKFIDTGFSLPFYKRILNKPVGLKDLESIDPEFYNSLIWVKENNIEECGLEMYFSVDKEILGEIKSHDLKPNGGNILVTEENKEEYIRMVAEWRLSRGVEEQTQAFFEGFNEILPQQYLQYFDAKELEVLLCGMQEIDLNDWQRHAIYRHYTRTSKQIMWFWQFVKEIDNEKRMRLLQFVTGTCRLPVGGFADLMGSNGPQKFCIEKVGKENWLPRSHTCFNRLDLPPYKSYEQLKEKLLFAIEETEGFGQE
UniProt P61809: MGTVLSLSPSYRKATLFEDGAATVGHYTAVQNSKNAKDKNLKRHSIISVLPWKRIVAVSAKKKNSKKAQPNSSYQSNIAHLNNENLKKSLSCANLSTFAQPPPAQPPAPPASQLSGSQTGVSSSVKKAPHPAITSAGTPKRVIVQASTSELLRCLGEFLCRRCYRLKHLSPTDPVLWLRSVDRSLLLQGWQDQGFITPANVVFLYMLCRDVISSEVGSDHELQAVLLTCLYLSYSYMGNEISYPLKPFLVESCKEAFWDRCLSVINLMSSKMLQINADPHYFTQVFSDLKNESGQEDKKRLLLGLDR
Recombinant Human ITCH/AIP4 isoform 2 protein (Q96J02-2, form named): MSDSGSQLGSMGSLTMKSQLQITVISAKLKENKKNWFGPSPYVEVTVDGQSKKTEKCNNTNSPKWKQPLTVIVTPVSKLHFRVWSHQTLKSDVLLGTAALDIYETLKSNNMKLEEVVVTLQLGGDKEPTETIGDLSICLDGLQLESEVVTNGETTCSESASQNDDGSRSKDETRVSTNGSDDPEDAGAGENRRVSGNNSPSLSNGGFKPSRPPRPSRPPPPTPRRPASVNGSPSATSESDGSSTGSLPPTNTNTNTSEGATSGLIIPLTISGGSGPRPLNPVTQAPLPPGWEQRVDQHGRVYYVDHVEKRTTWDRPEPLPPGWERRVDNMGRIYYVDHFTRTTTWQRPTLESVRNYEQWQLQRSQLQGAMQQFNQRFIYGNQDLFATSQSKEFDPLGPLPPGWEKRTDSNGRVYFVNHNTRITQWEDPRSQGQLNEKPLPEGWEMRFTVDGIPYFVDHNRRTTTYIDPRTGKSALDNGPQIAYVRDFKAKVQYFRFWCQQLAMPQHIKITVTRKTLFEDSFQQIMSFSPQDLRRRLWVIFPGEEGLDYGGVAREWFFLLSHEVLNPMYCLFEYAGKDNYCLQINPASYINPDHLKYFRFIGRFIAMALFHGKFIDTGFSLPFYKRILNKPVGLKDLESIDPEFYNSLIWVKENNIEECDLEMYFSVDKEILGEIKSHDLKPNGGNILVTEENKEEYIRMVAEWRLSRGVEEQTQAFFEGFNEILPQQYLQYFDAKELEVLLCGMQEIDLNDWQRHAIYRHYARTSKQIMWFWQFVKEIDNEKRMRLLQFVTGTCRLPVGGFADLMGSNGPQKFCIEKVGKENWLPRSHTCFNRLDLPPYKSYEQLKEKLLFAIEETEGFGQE

Key:
[1] = biological target: GST fused-p35 (UniProt Q15078); experiment: pull-down; GST or GST-p35 incubated with 1 μg Itch or/and 1 μg His-JIP1 at 4 °C for 2 h; retrieved with GSH beads; blot with Itch and JIP1 antibody; both purified
[2] = biological target: GST fused with JIP1 (c-Jun N-terminal kinase (JNK)-interacting protein 1) (human) (UniProt Q9UQF2); experiment: pull-down; 1 μg GST or GST-JIP1 incubated with 2 μg His-p35 at 4 °C for 2 h; retrieved with GSH-Sepharose; western blot with anti-p35; both purified
[3] = biological target: T1, JIP1, endogenous mouse (mouse (endogenous in embryonic brain and cortical neurons)) (UniProt Q9WVI9); experiment: co-IP; 500 μg mouse brain lysate (E15-16); IP with 1 μg JIP1 antibody or IgG control; blot with anti-p35
T1 sequence: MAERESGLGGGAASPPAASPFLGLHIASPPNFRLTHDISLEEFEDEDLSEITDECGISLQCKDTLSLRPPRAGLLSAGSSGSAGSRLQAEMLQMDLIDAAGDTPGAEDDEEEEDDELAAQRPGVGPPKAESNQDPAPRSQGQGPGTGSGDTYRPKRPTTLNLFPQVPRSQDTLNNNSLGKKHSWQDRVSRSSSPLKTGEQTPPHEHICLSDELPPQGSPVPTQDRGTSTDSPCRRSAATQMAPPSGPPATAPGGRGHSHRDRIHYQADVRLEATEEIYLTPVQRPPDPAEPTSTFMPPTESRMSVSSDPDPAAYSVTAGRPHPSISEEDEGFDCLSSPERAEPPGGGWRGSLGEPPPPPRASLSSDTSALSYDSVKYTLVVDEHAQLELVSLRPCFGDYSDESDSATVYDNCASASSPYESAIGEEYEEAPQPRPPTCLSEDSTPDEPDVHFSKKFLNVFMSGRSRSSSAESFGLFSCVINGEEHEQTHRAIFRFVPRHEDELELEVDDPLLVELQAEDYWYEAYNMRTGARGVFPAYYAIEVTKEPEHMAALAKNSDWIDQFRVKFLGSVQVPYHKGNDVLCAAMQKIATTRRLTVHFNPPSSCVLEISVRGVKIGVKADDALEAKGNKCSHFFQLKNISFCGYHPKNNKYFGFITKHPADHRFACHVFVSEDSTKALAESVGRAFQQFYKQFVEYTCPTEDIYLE

[4] = biological target: Itch, endogenous mouse (mouse (endogenous in embryonic cortex)) (UniProt Q8C863); experiment: co-IP; CD-1 embryonic cortex lysate (E15.5-16.5); IP with Itch antibody; blot with JIP1 antibody
[5] = biological target: p35, endogenous mouse (mouse (endogenous in embryonic brain and cortical neurons)) (UniProt P61809); experiment: co-IP; lysates of cultured cortical neurons of p35 or JIP1 WT and KO mice; IP with anti-p35 or control IgG; blot with anti-JIP1

- binding [1]: binds
Molecule: His-JIP1 (from UniProt Q9UQF2 1-711)

- binding [2]: binds
Molecule: His-tagged p35 (from UniProt Q15078 1-307)

- binding [1]: binds
Molecule: Recombinant Human ITCH/AIP4 isoform 2 protein (from UniProt Q96J02-2 1-862) (enzyme)

- binding [3]: binds
Molecule: p35, endogenous mouse (from UniProt P61809 1-307)

- binding [4]: binds
- binding [5]: binds
B1: JIP1, endogenous mouse (protein, UniProt Q9WVI9 1-707)
chain: T1 sequence
